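Plate-reader measure of the Venus reporter marking one vaccinia stage in infected cells (the cell line is not named here); read time unknown.
The test concentration is not given here.
Percent change in Venus reporter signal; lower (more negative) values mean stronger inhibition of that viral stage.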

Values are in %.
The controls that fix the scale are not given here.
Common to all entries: measured here: Venus reporter, other viral stage.
This is a side read-out of the assay, for part of the compounds, not drawn at random.

SMILES,activity change (Venus) (%)
C[C@@H]1CN([C@@H](C)CO)C(=O)c2cc(NC(=O)CCCN(C)C)ccc2O[C@@H]1CN(C)Cc1ccc(Oc2ccccc2)cc1,-31.82
C[C@@H]1CN([C@@H](C)CO)C(=O)c2cc(NS(=O)(=O)c3ccc(Cl)cc3)ccc2O[C@@H](C)CCCCO[C@@H]1CN(C)Cc1ccccc1,-70.34
C[C@@H]1CCCCO[C@H](CN(C)Cc2ccc(C(F)(F)F)cc2)[C@H](C)CN([C@H](C)CO)C(=O)c2cc(NC(=O)c3ccccc3)ccc2O1,-38.99
O=C(C1CCCC1)N1C[C@@H]2N[C@H](C1)C2c1ccc(-c2cncnc2)cc1 (some centres undefined),-31.03
CN1c2ccc(-c3ccccc3F)cc2[C@H]2[C@H](CCN2S(=O)(=O)c2ccccc2)[C@H]1CO,-42.57
Cc1ccc(S(=O)(=O)Nc2ccc3c(c2)C(=O)N([C@@H](C)CO)C[C@@H](C)[C@H](CN(C)Cc2ccc4c(c2)OCO4)OCCCC[C@@H](C)O3)cc1,-54.27
C[C@H]1CN([C@@H](C)CO)C(=O)c2cc(/C=C/c3ccccc3)cnc2O[C@@H]1CN(C)Cc1ccccc1F,-23.56
O=C(Nc1cccc(F)c1)N1CCCCN2[C@H](C1)[C@@H](c1ccc(C#Cc3cccnc3)cc1)[C@@H]2CO,-45.12
O=C(Nc1ccc(F)cc1)N1C[C@@H]2N[C@H](C1)C2c1ccc(-c2ccccc2F)cc1 (some centres undefined),-89.28
COc1ccc(CN(C)C[C@H]2OCCCC[C@H](C)Oc3ccc(NC(=O)C4CCCCC4)cc3C(=O)N([C@@H](C)CO)C[C@@H]2C)cc1,-50.55
CC(C)CC#Cc1ccc([C@@H]2[C@@H](CO)N3C(=O)CN(C(=O)Cc4ccccc4)C[C@H]23)cc1,-43.18
C[C@H](CO)N1C[C@H](C)[C@H](CN(C)C(=O)Nc2ccc(F)cc2)Oc2c(NC(=O)Nc3cccc4ccccc34)cccc2C1=O,-44.15
COCCCNC(=O)[C@]1(Cc2ccccc2N=[N+]=[N-])N=C(c2ccc(OCCCO)cc2)O[C@@H]1c1ccccc1N=[N+]=[N-],-42.17
O=C(Cc1cccnc1)N1CCCCN2[C@H](C1)[C@@H](c1ccc(/C=C/c3ccccc3)cc1)[C@@H]2CO,-42.8
C[C@@H]1CN([C@@H](C)CO)S(=O)(=O)c2ccc(C#CC(C)(C)O)cc2O[C@H]1CN(C)Cc1ccc(F)cc1,-55.63
C[C@H]1CN([C@@H](C)CO)S(=O)(=O)c2ccc(C#Cc3ccc(F)cc3)cc2O[C@H]1CN(C)S(=O)(=O)c1ccc(F)cc1,-36.25
O=C(Nc1ccc(-c2ccccc2)cc1)[C@@H]1[C@@H](CO)[C@@H]2Cn3c(cccc3=O)[C@@H]2N1CC1CCCC1,-42.22
COc1ccc(S(=O)(=O)Nc2ccc3c(c2)CC(=O)N([C@@H](C)CO)C[C@@H](C)[C@H](CN(C)Cc2ccc(Cl)c(Cl)c2)O3)cc1,-56.05
C[C@H]1CN([C@@H](C)CO)C(=O)Cc2cc(NC(=O)Nc3ccccc3)ccc2O[C@H]1CN(C)Cc1ccc2c(c1)OCO2,-33.84
O=C(Nc1ccccc1F)N1CC(=O)N2[C@H](CO)[C@H](c3ccc(C#Cc4ccccc4)cc3)[C@H]2C1,-32.81
COc1ccc(NC(=O)N(C)C[C@H]2Oc3cc(-c4ccc(C)cc4)ccc3S(=O)(=O)N([C@@H](C)CO)C[C@H]2C)cc1,-53.59
O=C(Nc1cccc(F)c1)N1CC(=O)N2[C@H](CO)[C@@H](c3ccc(-c4ccc(F)cc4)cc3)[C@H]2C1,-44.53
O=C(c1ccccc1F)N1CC[C@@H]2[C@@H](CO)Nc3ccc(-c4ccc(F)cc4)cc3[C@@H]21,-35.24
C[C@H](CO)N1C[C@H](C)[C@@H](CN(C)Cc2ccc(Oc3ccccc3)cc2)OCc2ccccc2-c2ccccc2C1=O,-68.59
C[C@@H]1CN([C@@H](C)CO)S(=O)(=O)c2ccc(C#Cc3ccc(F)cc3)cc2O[C@@H]1CN(C)C,-51.94
CN1c2ccc(-c3ccc(F)cc3)cc2[C@H]2[C@H](CCN2S(=O)(=O)c2ccc(F)cc2)[C@@H]1CO,-61.97
Cc1cccc(-c2ccc(C3[C@@H]4CN(C(=O)Nc5ccc(C(F)(F)F)cc5)C[C@H]3N4)cc2)c1 (some centres undefined),-72.91
CO[C@@H]1CN(C)C(=O)c2ccc(NS(=O)(=O)c3cccc(F)c3)cc2OC[C@H](C)N(Cc2cc(F)ccc2F)C[C@@H]1C,-47.79
C/C=C/c1ccc2c(c1)O[C@H](CN(C)Cc1ccc(F)cc1)[C@H](C)CN([C@@H](C)CO)S2(=O)=O,-53.12
CCC(=O)N1CCCCN2[C@H](C1)[C@H](c1ccc(C#Cc3ccccc3)cc1)[C@@H]2CO,-65.81
O=C(CC1CC1)N1CC(=O)N2[C@@H](CO)[C@@H](c3ccc(C#Cc4cccc(F)c4)cc3)[C@@H]2C1,-47.37
CCCNC(=O)C[C@H]1CC[C@@H]2[C@@H](COc3ccc(NC(=O)c4cccc(C(F)(F)F)c4)cc3C(=O)N2C)O1,-27.59
CCCNC(=O)N1[C@H](C#N)[C@H](c2ccc(C#Cc3ccc(F)cc3)cc2)[C@H]1CO,-34.98
C[C@@H]1CN([C@@H](C)CO)C(=O)c2cc(C#CC3CCCCC3)cnc2O[C@H]1CN(C)S(=O)(=O)c1ccccc1,-53.2
C[C@H]1CN([C@@H](C)CO)C(=O)Cc2cc(NC(=O)Nc3ccccc3)ccc2O[C@H]1CN(C)S(=O)(=O)c1cccs1,-17.92
C[C@@H]1CN([C@H](C)CO)C(=O)c2cc(NC(=O)Nc3ccccc3)ccc2O[C@@H](C)CCCCO[C@@H]1CN(C)Cc1ccc2c(c1)OCO2,-48.4
COc1ccc2c3c(n(C)c2c1)[C@H](CO)N(C(=O)Nc1ccc(F)cc1)CC31CCN(Cc2cccc(F)c2)CC1,-67.27
O=C1CN(S(=O)(=O)Cc2ccccc2)C[C@H]2[C@@H](c3ccc(C#Cc4ccc(F)cc4)cc3)[C@@H](CO)N12,-30.72
Cc1ccc(-c2ccc3c(c2)O[C@@H](CN(C)Cc2ccncc2)[C@H](C)CN([C@@H](C)CO)S3(=O)=O)cc1,-64.66
COc1ccc(CN(C)C[C@H]2OCCCC[C@@H](C)Oc3ccc(NC(=O)c4ccccc4)cc3C(=O)N([C@@H](C)CO)C[C@@H]2C)cc1,-52.62
C[C@@H]1CN([C@@H](C)CO)S(=O)(=O)c2ccc(C#CC3CCCCC3)cc2O[C@@H]1CN(C)Cc1cccnc1,-68.08
C[C@@H]1CN([C@@H](C)CO)C(=O)c2cc(NC(=O)C3CCCCC3)ccc2O[C@@H](C)CCCCO[C@H]1CN(C)Cc1ccccc1,-35.35
C[C@@H]1CN([C@H](C)CO)C(=O)Cc2cc(NS(=O)(=O)c3ccc(F)cc3)ccc2O[C@@H]1CN(C)Cc1ccc(Oc2ccccc2)cc1,-38.29
COc1ccccc1-c1ccc([C@H]2[C@@H](CO)N3CCCCN(C(=O)NC4CCCC4)C[C@H]23)cc1,-40.61
N#Cc1ccc(-c2ccc3c(c2)[C@H]2[C@H](CCN2C(=O)C2CCCC2)[C@@H](CO)N3)cc1,-49.79
O=C(Cc1cccnc1)N1CCCCN2[C@H](C1)[C@@H](c1ccc(C#CC3CCCC3)cc1)[C@@H]2CO,-41.14
O=C(Nc1ccc(C(F)(F)F)cc1)N1C[C@@H]2N[C@H](C1)C2c1ccc(-c2ccccc2)cc1 (some centres undefined),-22.37
Cc1ccc(S(=O)(=O)N[C@H]2CC[C@H](CC(=O)N3CCC(Cc4ccccc4)CC3)O[C@@H]2CO)cc1,-25.3
Cc1ccc(S(=O)(=O)Nc2ccc3c(c2)C(=O)N([C@@H](C)CO)C[C@@H](C)[C@H](CN(C)CC2CCCCC2)OCCCC[C@@H](C)O3)cc1,-57.06
CN1CCCCN2[C@@H](CO)[C@@H](c3ccc(C#Cc4ccccc4F)cc3)[C@@H]2C1,-79.12
N#C[C@H]1[C@@H](c2ccc(C#CC3CCCCC3)cc2)[C@H](CO)N1C(=O)Nc1ccc(F)cc1,-40.12

The first 3 entries again:

{"smiles": "C[C@@H]1CN([C@@H](C)CO)C(=O)c2cc(NC(=O)CCCN(C)C)ccc2O[C@@H]1CN(C)Cc1ccc(Oc2ccccc2)cc1", "activity change (Venus) (%)": "-31.82"}
{"smiles": "C[C@@H]1CN([C@@H](C)CO)C(=O)c2cc(NS(=O)(=O)c3ccc(Cl)cc3)ccc2O[C@@H](C)CCCCO[C@@H]1CN(C)Cc1ccccc1", "activity change (Venus) (%)": "-70.34"}
{"smiles": "C[C@@H]1CCCCO[C@H](CN(C)Cc2ccc(C(F)(F)F)cc2)[C@H](C)CN([C@H](C)CO)C(=O)c2cc(NC(=O)c3ccccc3)ccc2O1", "activity change (Venus) (%)": "-38.99"}

Source: PubChem BioAssay AID1053133 (Broad Institute, 2014).